# PubChem BioAssay AID1259308 – NCATS – 2017
# Test: 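Knock-downs that increase output of a recombinant reporter protein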 (primary screen)
# Cells: human HEK293 embryonic kidney cells stably expressing firefly luciferase (HEK-CMV-Luc2-Hygro)
# Reagents: single siRNA against human genes, 0.8 pmol siRNA per well
# Timing: 72 h
# Measurement: 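Luciferase light (ONE-Glo) measured on one replicate plate set and viability (CellTiter-Glo) on the other, scaled to a negative control siRNA, with robust z-scores and luciferase per cell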
# Scale: total luciferase, z-score and total luciferase, % of control: higher = more reporter protein produced; luciferase per cell, z-score: higher = more reporter output per viable cell; viable cells, % of control: higher = more viable cells
# Call rule: 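Active when the median/MAD z-score for overall luciferase is greater than 3; a gene was taken forward for validation with new siRNAs if at least two of its three siRNAs passed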
# Meaning of the calls: active = raised luciferase; inactive = no rise
# In all, the deposit lists about 59,000 reagents; this is a part drawn at random. About 1,510 of all reagents (2.6%) count as active. 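Calls use total luciferase alone and ignore viability, so some active siRNAs may act by altering cell number.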 A number with no mark means an inactive call. The numbers tell different reagents against one gene apart.
gene,siRNA no.,"total luciferase, z-score","total luciferase, % of control","luciferase per cell, z-score","viable cells, % of control"
GREB1 (growth regulating estrogen receptor binding 1),1,0.663,95.1,-0.208,112
GREB1 (growth regulating estrogen receptor binding 1),2,-0.231,77.3,0.592,73.9
GREB1 (growth regulating estrogen receptor binding 1),3,0.0669,83.2,-0.328,101
TMEM60 (transmembrane protein 60),1,5.89 (active),199,3.85,80.8
TMEM60 (transmembrane protein 60),2,0.215,86.2,0.419,86.2
TMEM60 (transmembrane protein 60),3,-0.436,73.2,0.794,66.4
KRTAP13-1 (keratin associated protein 13-1),1,-0.282,76.3,0.184,81.2
KRTAP13-1 (keratin associated protein 13-1),2,2.07,123,1.62,89.7
KRTAP13-1 (keratin associated protein 13-1),3,-0.0684,80.5,0.275,83.7
PTH (parathyroid hormone),1,-0.915,63.7,-1.52,106
PTH (parathyroid hormone),2,0.162,85.1,-0.844,119
PTH (parathyroid hormone),3,0.293,87.7,0.0869,95.8
ENTPD7 (ectonucleoside triphosphate diphosphohydrolase 7),1,0.542,92.7,-0.00565,104
ENTPD7 (ectonucleoside triphosphate diphosphohydrolase 7),2,-0.338,75.2,-0.912,107
ENTPD7 (ectonucleoside triphosphate diphosphohydrolase 7),3,-0.581,70.3,-0.947,101

Records listed so far whose gene name starts with P or p:
gene,siRNA no.,"total luciferase, z-score","total luciferase, % of control","luciferase per cell, z-score","viable cells, % of control"
PTH (parathyroid hormone),1,-0.915,63.7,-1.52,106
PTH (parathyroid hormone),2,0.162,85.1,-0.844,119
PTH (parathyroid hormone),3,0.293,87.7,0.0869,95.8

Continued:
gene,siRNA no.,"total luciferase, z-score","total luciferase, % of control","luciferase per cell, z-score","viable cells, % of control"
CYP1A2 (cytochrome P450 family 1 subfamily A member 2),1,1.02,102,1.52,76.6
CYP1A2 (cytochrome P450 family 1 subfamily A member 2),2,0.142,84.7,0.441,84.3
CYP1A2 (cytochrome P450 family 1 subfamily A member 2),3,-0.773,66.5,-1.29,104
MYADML2 (myeloid associated differentiation marker like 2),1,-1.03,61.5,-1.16,93.2
MYADML2 (myeloid associated differentiation marker like 2),2,-0.86,64.8,-0.52,83
MYADML2 (myeloid associated differentiation marker like 2),3,0.485,91.5,0.767,83.6
RENBP (renin binding protein),1,0.133,84.5,0.173,90.3
RENBP (renin binding protein),2,1.52,112,0.771,102
RENBP (renin binding protein),3,0.663,95.1,0.723,87.8
PANK3 (pantothenate kinase 3),1,-0.508,71.8,-0.817,99.5
PANK3 (pantothenate kinase 3),2,1.28,107,0.88,95.2
PANK3 (pantothenate kinase 3),3,-0.57,70.5,-0.839,98.3
GPD1L (glycerol-3-phosphate dehydrogenase 1 like),1,-0.00793,81.7,-0.256,97.7
GPD1L (glycerol-3-phosphate dehydrogenase 1 like),2,-0.156,78.8,-0.384,97.4
GPD1L (glycerol-3-phosphate dehydrogenase 1 like),3,0.133,84.5,0.425,84.5
HMMR (hyaluronan mediated motility receptor),1,-0.45,72.9,-0.856,102
HMMR (hyaluronan mediated motility receptor),2,-0.476,72.4,-0.833,101
HMMR (hyaluronan mediated motility receptor),3,-0.418,73.6,-0.814,102
DRD4 (dopamine receptor D4),1,-0.276,76.4,0.301,78.9
DRD4 (dopamine receptor D4),2,-0.977,62.5,-1.08,92.8
DRD4 (dopamine receptor D4),3,4.38 (active),169,3.32,78.9
CHAD (chondroadherin),1,-1.15,59,-1.63,101
CHAD (chondroadherin),2,-0.259,76.7,-0.196,90.3
CHAD (chondroadherin),3,0.844,98.7,0.51,96.4
